Out of some 340,000 compounds screened, about 170 (0.05%) were called active. The shares of active, inactive and inconclusive entries below differ from those in the screen. The call rests on the fitted dose curve; in most records, active means well fitted inhibition curve with a large enough effect in the signal ratio, with a control signal flat (not every such curve was filed as active); inconclusive means small, poorly fitted or top-dose-only effect, or effect the other way, or a change in a side signal; inactive means flat fitted curve, though single readings scatter; the % refers to the signal ratio. A potency beside an inconclusive call is a rough fit, not a confirmed value.
Experiment: qHTS Assay to Find Inhibitors of Chronic Active B-Cell Receptor Signaling;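 on activity change, negative = inhibition: plate controls were basal doxycycline-induced cells for no effect and cells given 10 µM MG132 for full effect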
Conditions: ABC-DLBCL IkBa-CBG/CBR reporter, luminescence ratio (green luciferase fused to IkBa over red control in TMD8 lymphoma cells), 4 h; activity change, negative = inhibition: at 46.1 µM (top of the series) unless noted
Outline: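 Cell line TMD8 (human ABC DLBCL), stably expressing tet-inducible CBG68-IkBa fusion and CBR; IMDM/0.5% FBS; cpd up to 46 uM; dox induction, 4 h, 37C/5% CO2; dual luminescence; green/red ratio; MG132 control.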
Potency means the concentration at half of the fitted maximal effect.

Row | Structure (SMILES) | activity change, negative = inhibition | Potency
1 | COc1ccc(-c2nc3sc(CCNC(=O)C(=O)Nc4cc(F)ccc4F)c(C)n3n2)cc1 | inactive: -4.19% | –
2 | COCC(=O)Nc1nc(-c2ccccc2)ns1 | – | inconclusive: 18.4 µM [falling, partial curve]
3 | O=C1C=C(c2ccc3c(c2)OCCO3)C[C@@H](c2ccc(F)cc2)C1 | inactive: 2.5% | –
4 | CCOc1ccc2nc(NCCCNS(=O)(=O)c3ccccc3)c(C#N)cc2c1 | – | inconclusive: 14.6 µM [falling, single point]
5 | COCCNC(=O)CCn1nc(-c2ccc(C)cc2)ccc1=O | inconclusive: 6.1% | –
6 | Cc1ccc(C(=O)NC(=S)N(C)C2CCCCC2)cc1 | inconclusive: 8% | –
7 | Cc1c(Cl)cccc1-n1c(SCC(=O)N(C)Cc2ccccc2)nnc1-c1ccncc1 | – | inconclusive: 0.326 µM [falling, full curve, poor fit]
8 | CCOC(=O)c1c(NC(=O)C2CCCCC2C(=O)O)sc2c1CCCCC2 (stereo unspecified) | inconclusive: 10.2% | –
9 | COC(=O)c1ccc2c(=O)n(CCc3ccc(S(N)(=O)=O)cc3)c(SCC(=O)C(C)(C)C)nc2c1 | inactive: 1.65% | –
10 | CC1CCCCN1C(=O)c1ccc(C(=O)Nc2ccc(F)cc2)cc1 (stereo unspecified) | – | inconclusive: 8.2 µM [rising, partial curve]
11 | COc1cc(C2C3=C(CC(C)(C)CC3=O)N(C)C3=C2C(=O)CC(C)(C)C3)cc(Br)c1O | inconclusive: 4.4% | –
12 | O=C(Nc1ccc(Cl)cc1)N1CCC(c2nc(-c3cccs3)no2)CC1 | – | inconclusive: 0.146 µM [rising, full curve, poor fit]
13 | CCCCN1C(=O)C(O)(CC(=O)c2ccccn2)c2ccccc21 (stereo unspecified) | inconclusive: 12.2% | –
14 | CCOC(=O)C1CN(S(=O)(=O)c2ccc(C)cc2)c2ccccc2O1 (stereo unspecified) | inactive: -1.05% | –
15 | CCOCCCNC(=O)C1CCN(C(=O)Nc2ccc(Cl)cc2)CC1 | inconclusive: 14.3% | –
16 | CC(Oc1ccccc1Cl)C(=O)Nc1ccccc1C(=O)N1CCOCC1 (stereo unspecified) | inconclusive: -3.46% | –
17 | O=C(NC1CCCC1)c1ccccc1OCc1ccccc1 | inconclusive: 6.7% | –
18 | CCOC(=O)C1=C(C)n2c(s/c(=C/c3cccc([N+](=O)[O-])c3)c2=O)=NC1c1ccc(O)c(OC)c1 (stereo unspecified) | inactive: -9.56% | –
19 | COc1ccc(/C=C/C(=O)Nc2cccc(F)c2)cc1S(=O)(=O)N1CCOCC1 | inconclusive: -5.15% | –
20 | CCN1CCN(S(=O)(=O)c2ccc3ccccc3c2)CC1 | inconclusive: 5.98% | –
21 | CC1CCN(C(=O)COC(=O)c2n[nH]c3ccccc23)CC1 | inactive: -15.5% | –

One compound at a time, from the list above.
CCCCN1C(=O)C(O)(CC(=O)c2ccccn2)c2ccccc21 (stereo unspecified) as listed: activity change, negative = inhibition: inconclusive: 12.2%
COc1ccc(/C=C/C(=O)Nc2cccc(F)c2)cc1S(=O)(=O)N1CCOCC1 as listed: activity change, negative = inhibition: inconclusive: -5.15%

Further entries follow.

Row | Structure (SMILES) | activity change, negative = inhibition | Potency
22 | O=C(CSc1nnc(COc2ccc(F)cc2)o1)N1c2ccccc2CCc2ccccc21 | inactive: 0.867% | –
23 | Cc1c(C(=O)Nc2ccc(F)cc2)oc2ccc(S(=O)(=O)N3CCCCCC3)cc12 | inconclusive: 15.7% | –
24 | Cn1cc(Br)c(C(=O)NNC(=O)c2ccc(Br)cc2)n1 | – | inconclusive: 18.4 µM [falling, partial curve]
25 | CC(Oc1ccc(Cl)cc1Cl)C(=O)NC(=S)N1CCc2ccccc21 (stereo unspecified) | inactive: -10.3% | –
26 | CN(C(=O)c1ccncc1)c1nnc(-c2ccccn2)s1 | inconclusive: 1.97% | –
27 | CCOC(=O)N/N=C/c1c[nH]c2ccccc12 | inconclusive: -15.6% | –
28 | CC(NC(=O)c1cccc(S(=O)(=O)N2CCN(C)CC2)c1)c1ccc(Cl)cc1Cl (stereo unspecified) | inconclusive: -4.65% | –
29 | CC(Sc1nn(-c2ccccc2)c(=S)s1)C(=O)NCC1CCCO1 (stereo unspecified) | inactive: -0.582% | –
30 | O=C1CC(N2CCN(c3ccccc3Cl)CC2)C(=O)N1c1cccc(F)c1 (stereo unspecified) | inconclusive: 0.561% | –
31 | CCOC(=O)NC(=O)c1cn(-c2ccc(OC)cc2)c(=O)[nH]c1=O | inconclusive: 6.71% | –
32 | COc1cccc(C2CC(=O)N3CN(c4ccccc4F)CSC3=C2C#N)c1 (stereo unspecified) | inactive: -14.9% | –
33 | O=C(NC(=S)N(CCCCO)C1CCCCC1)c1sc2ccccc2c1Cl | – | inconclusive: 35.5 µM [falling, single point]
34 | CC(NC(=O)c1ccc(CS(=O)(=O)c2cccc(C(F)(F)F)c2)o1)c1ccc2c(c1)OCCO2 (stereo unspecified) | – | inconclusive: 18.4 µM [falling, single point]
35 | CCOc1cc(C2C3=C(CC(C)(C)CC3=O)Nc3n[nH]c(C)c32)ccc1O (stereo unspecified) | inactive: -1.33% | –
36 | COc1ccccc1/C=C/C=N/NC(=O)c1ccccn1 | inconclusive: 240% | –
37 | CC12CCC(=O)N1C(C(=O)N1CCN(S(=O)(=O)c3cccc(C(F)(F)F)c3)CC1)CS2 (stereo unspecified) | inconclusive: -0.0802% | –
38 | COc1ccc(N2CCN(CCS(=O)(=O)c3cc(Cl)ccc3Cl)CC2)cc1 | inactive: -10.7% | –
39 | CCCc1cc(=O)oc2cc(OCC(=O)NCCCn3ccnc3)ccc12 | inconclusive: 5.1% | –
40 | COc1ccc2c(C(=O)NCCCCO)c(-c3ccc(S(C)(=O)=O)cc3)sc2c1 | inconclusive: 2.22% | –
41 | COc1ccc(NC2CS(=O)(=O)CC2NCc2ccccc2)cc1 (stereo unspecified) | – | inconclusive: 0.58 µM [falling, full curve, poor fit]

Source: PubChem BioAssay AID493014 (National Center for Advancing Translational Sciences (NCATS), 2011)
